Values from PubChem BioAssay AID1224830 (NIAID, 2016)
Aim: 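Genes whose knock-down alters the TNF-alpha reporter response to LPS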 (primary screen). Cell system: human THP-1 monocytic leukaemia cells, TNF dual-luciferase reporter clone, PMA-differentiated to macrophage-like cells. Reagent: siRNA pool against human genes, 50 nM. Duration: LPS for 4 h, given about 3 days after siRNA transfection. Conditions: bacterial LPS (TLR4 ligand), 10 ng/ml. Measurement: 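TNF firefly reporter luminescence divided by renilla, normalised to the plate median, then turned into a robust z-score for each replicate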. Reading the numbers: TNF reporter robust z-score: higher = stronger TNF reporter response to LPS. Rule for the call: 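Each well counts as active if its z-score is over 2.8 or under -1.5; controls are left without a call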.
The deposit covers about 18,000 reagents; shown is a random part of them. About 2,900 of all reagents (16%) were called active. 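Calls are made per well; low scores hint the gene aids the LPS response, high scores that it dampens it.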 Repeated entries: four replicate wells of each siRNA pool.

gene,TNF reporter robust z-score,Call
NME8 (NME/NM23 family member 8),0.02,inactive
NME8 (NME/NM23 family member 8),0.43,inactive
NME8 (NME/NM23 family member 8),-0.99,inactive
NME8 (NME/NM23 family member 8),0.59,inactive
"AGAP2 (ArfGAP with GTPase domain, ankyrin repeat and PH domain 2)",0.34,inactive
"AGAP2 (ArfGAP with GTPase domain, ankyrin repeat and PH domain 2)",0.79,inactive
"AGAP2 (ArfGAP with GTPase domain, ankyrin repeat and PH domain 2)",-0.15,inactive
"AGAP2 (ArfGAP with GTPase domain, ankyrin repeat and PH domain 2)",0.8,inactive
ZFAND1 (zinc finger AN1-type containing 1),-0.18,inactive
ZFAND1 (zinc finger AN1-type containing 1),0.48,inactive
ZFAND1 (zinc finger AN1-type containing 1),1.54,inactive
ZFAND1 (zinc finger AN1-type containing 1),0.43,inactive
AMER3 (APC membrane recruitment protein 3),0.81,inactive
AMER3 (APC membrane recruitment protein 3),0.22,inactive
AMER3 (APC membrane recruitment protein 3),2.06,inactive
AMER3 (APC membrane recruitment protein 3),1.75,inactive
MAGED1 (MAGE family member D1),-0.85,inactive
MAGED1 (MAGE family member D1),-1.35,inactive
MAGED1 (MAGE family member D1),-0.05,inactive
MAGED1 (MAGE family member D1),0.37,inactive

Additional results follow.
gene,TNF reporter robust z-score,Call
CACNB2 (calcium voltage-gated channel auxiliary subunit beta 2),1.3,inactive
CACNB2 (calcium voltage-gated channel auxiliary subunit beta 2),0.8,inactive
CACNB2 (calcium voltage-gated channel auxiliary subunit beta 2),1.22,inactive
CACNB2 (calcium voltage-gated channel auxiliary subunit beta 2),1.41,inactive
RBM26 (RNA binding motif protein 26),-0.64,inactive
RBM26 (RNA binding motif protein 26),-0.52,inactive
RBM26 (RNA binding motif protein 26),-0.22,inactive
RBM26 (RNA binding motif protein 26),-1.37,inactive
FAAP100 (FA core complex associated protein 100),2.49,inactive
FAAP100 (FA core complex associated protein 100),3.08,active
FAAP100 (FA core complex associated protein 100),1.92,inactive
FAAP100 (FA core complex associated protein 100),2.33,inactive
OR5P2 (olfactory receptor family 5 subfamily P member 2),-0.71,inactive
OR5P2 (olfactory receptor family 5 subfamily P member 2),-0.07,inactive
OR5P2 (olfactory receptor family 5 subfamily P member 2),-0.31,inactive
OR5P2 (olfactory receptor family 5 subfamily P member 2),0.08,inactive
TNFAIP2 (TNF alpha induced protein 2),1.05,inactive
TNFAIP2 (TNF alpha induced protein 2),2,inactive
TNFAIP2 (TNF alpha induced protein 2),3.52,active
TNFAIP2 (TNF alpha induced protein 2),1.45,inactive
DNAJC12 (DnaJ heat shock protein family (Hsp40) member C12),1.66,inactive
DNAJC12 (DnaJ heat shock protein family (Hsp40) member C12),1.22,inactive
DNAJC12 (DnaJ heat shock protein family (Hsp40) member C12),-1.03,inactive
DNAJC12 (DnaJ heat shock protein family (Hsp40) member C12),0,inactive
GPRC6A (G protein-coupled receptor class C group 6 member A),0.94,inactive
GPRC6A (G protein-coupled receptor class C group 6 member A),-0.45,inactive
GPRC6A (G protein-coupled receptor class C group 6 member A),0.54,inactive
GPRC6A (G protein-coupled receptor class C group 6 member A),0.47,inactive
